One assay concerns the target T1, MBP-Far1 H7 (S. cerevisiae, UniProt P21268 1-755).
T1 sequence (looked up): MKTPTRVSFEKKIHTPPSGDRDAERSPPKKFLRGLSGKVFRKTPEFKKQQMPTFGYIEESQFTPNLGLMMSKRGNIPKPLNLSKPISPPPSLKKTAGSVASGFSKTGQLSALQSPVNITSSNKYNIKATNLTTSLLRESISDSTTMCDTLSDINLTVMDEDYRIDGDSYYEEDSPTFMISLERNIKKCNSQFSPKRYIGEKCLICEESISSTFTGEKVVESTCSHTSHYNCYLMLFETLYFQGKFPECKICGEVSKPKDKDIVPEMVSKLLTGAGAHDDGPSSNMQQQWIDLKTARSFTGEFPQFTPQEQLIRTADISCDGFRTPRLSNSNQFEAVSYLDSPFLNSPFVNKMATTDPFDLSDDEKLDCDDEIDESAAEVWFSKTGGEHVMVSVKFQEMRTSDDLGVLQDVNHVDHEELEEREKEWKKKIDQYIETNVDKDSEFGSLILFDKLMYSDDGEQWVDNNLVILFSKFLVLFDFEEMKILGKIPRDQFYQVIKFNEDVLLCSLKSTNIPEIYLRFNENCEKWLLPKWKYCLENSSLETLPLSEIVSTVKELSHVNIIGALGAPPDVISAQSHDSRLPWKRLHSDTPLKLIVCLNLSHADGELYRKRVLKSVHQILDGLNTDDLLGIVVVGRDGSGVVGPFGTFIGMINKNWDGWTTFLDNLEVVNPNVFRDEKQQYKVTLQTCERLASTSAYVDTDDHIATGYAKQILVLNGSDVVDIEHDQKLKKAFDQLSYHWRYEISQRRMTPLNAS
The experiment in a line: in vitro binding of MBP-Far1 fusions to Gβ purified from yeast.

The chains behind the UniProt entries cited, without tags or fusion partners. Where a name states a change or a piece, a line headed by the entry shows the natural chain unless it says otherwise.
UniProt P18852: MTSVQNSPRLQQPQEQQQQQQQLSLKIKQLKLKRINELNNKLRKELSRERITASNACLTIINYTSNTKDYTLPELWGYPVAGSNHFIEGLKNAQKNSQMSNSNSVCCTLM

Assay [1] addresses T2, His6Ste4p (S. cerevisiae) (UniProt P18851).
T2 sequence: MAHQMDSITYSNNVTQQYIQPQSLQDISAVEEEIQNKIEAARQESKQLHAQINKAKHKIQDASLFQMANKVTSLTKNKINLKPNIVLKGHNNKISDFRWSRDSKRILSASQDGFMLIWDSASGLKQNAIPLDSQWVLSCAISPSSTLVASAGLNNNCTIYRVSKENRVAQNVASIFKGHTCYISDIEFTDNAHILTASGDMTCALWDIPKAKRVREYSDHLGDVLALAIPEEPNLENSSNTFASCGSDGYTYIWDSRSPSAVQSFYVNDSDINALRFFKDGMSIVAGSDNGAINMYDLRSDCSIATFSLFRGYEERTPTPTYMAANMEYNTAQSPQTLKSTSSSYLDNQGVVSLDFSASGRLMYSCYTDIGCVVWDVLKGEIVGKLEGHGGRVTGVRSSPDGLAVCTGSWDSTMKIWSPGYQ
The experiment in a line: GSH-agarose pull-down from mixed bacterial extracts, immunoblot. (In general: In western blotting, separated proteins are transferred to a membrane and probed.)

These are yes or no findings as the source states them, for the method shown. For some assays here: In cells and extracts the contact can be indirect. Some binding calls cover weakened binding; strength is not graded here. Sequences can lack the tags named with a protein.

Regarding “Gβγ purified from yeast (HA-tagged Gβ) (from UniProt P18852 1-107)”, in the assay with MBP-Far1 H7, the binding entry was “binds”.

B1: GSTCdc24p (1-472 aa) (other, S. cerevisiae, UniProt P11433 1-472, looked up)
chain: MAIQTRFASGTSLSDLKPKPSATSISIPMQNVMNKPVTEQDSLFHICANIRKRLEVLPQLKPFLQLAYQSSEVLSERQSLLLSQKQHQELLKSNGANRDSSDLAPTLRSSSISTATSLMSMEGISYTNSNPSATPNMEDTLLTFSMGILPITMDCDPVTQLSQLFQQGAPLCILFNSVKPQFKLPVIASDDLKVCKKSIYDFILGCKKHFAFNDEELFTISDVFANSTSQLVKVLEVVETLMNSSPTIFPSKSKTQQIMNAENQHRHQPQQSSKKHNEYVKIIKEFVATERKYVHDLEILDKYRQQLLDSNLITSEELYMLFPNLGDAIDFQRRFLISLEINALVEPSKQRIGALFMHSKHFFKLYEPWSIGQNAAIEFLSSTLHKMRVDESQRFIINNKLELQSFLYKPVQRLCRYPLLVKELLAESSDDNNTKELEAALDISKNIARSINENQRRTENHQVVKKLYGRVV
notes: range 1-472; Expressed in E. coli; also called GSTCdc24 fusion; GST Cdc24 fusion (residues 1-472); not shown: glutathione-S-transferase as encoded by pGEX-2T (Pharmacia)
For B1, the binding result in assay [1] is “binds”.

Values taken from patent US20030175712A1 (published 2003).
